Measured values taken from patent publication US20220298260A1.
Residue numbers refer to the chain shown, from its start. These are yes or no findings as the source states them, for the method shown. Some entries that bind do so weakly or less than the wild type.

Protein sequences, listed by entry. Tags and fused reporters are not part of them. Lines headed by an entry give the natural chain unless they say otherwise; changes in a name come on top.
UniProt P15328: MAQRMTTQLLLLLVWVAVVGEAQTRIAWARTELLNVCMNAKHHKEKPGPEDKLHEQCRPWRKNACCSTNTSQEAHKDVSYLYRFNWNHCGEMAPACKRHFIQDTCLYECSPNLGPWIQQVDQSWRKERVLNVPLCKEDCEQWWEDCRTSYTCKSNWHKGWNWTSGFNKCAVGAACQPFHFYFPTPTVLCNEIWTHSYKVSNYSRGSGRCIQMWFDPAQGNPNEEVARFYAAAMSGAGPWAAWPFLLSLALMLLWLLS

B1: MYT1142 (antibody, V domains shown)
VH: QVQLVQSGAEVVKPGASVKISCKHSGHTFTGYFMNWVKQSPGQSLEWIGRIHPYDGDTFYNQKFQGKATLTVDKSSNTAHMELLSLTSEDFAVYYCTRYDGSRAMDYWGQGTTVTVSS
VL: DIVLTQSPLSLAVSLGQPAIISCKASQSVSFAGTSLMHWYHQKPGQQPRLLIYRASNLEAGVPDRFSGSGSKTDFTLTISPVEAEDAATYYCQQSREYPYTFGGGTKLEIK
B2: MYT1143 (antibody, V domains shown)
VH: B1 VH with H27Y, Y54H
VL: B1 VL
B3: MYT1144 (antibody, V domains shown)
VH: B1 VH with H27Y, T58H
VL: B1 VL
B4: MYT1145 (antibody, V domains shown)
VH: B1 VH with H27Y, F59H
VL: B1 VL
B5: MYT1146 (antibody, V domains shown)
VH: B1 VH with H24A, Y54H
VL: B1 VL
B6: MYT1147 (antibody, V domains shown)
VH: B1 VH with H24A, T58H
VL: B1 VL
B7: MYT1148 (antibody, V domains shown)
VH: B1 VH with H24A, F59H
VL: B1 VL
B8: MYT1149 (antibody, V domains shown)
VH: B1 VH with H24A, H27Y, Y54H, T58H
VL: B1 VL
B9: MYT1150 (antibody, V domains shown)
VH: B1 VH with H24A, H27Y, Y54H, F59H
VL: B1 VL
B10: MYT1151 (antibody, V domains shown)
VH: B1 VH with H24A, H27Y, T58H, F59H
VL: B1 VL
B11: MYT1152 (antibody, V domains shown)
VH: B1 VH with Y54H
VL: B1 VL
B12: MYT1153 (antibody, V domains shown)
VH: B1 VH with T58H
VL: B1 VL

molecular target: FOLR1 (R&D Systems, Cat #5646-FR) (human) (UniProt P15328); experiment: BLI, IgG on anti-human Fc sensor, 50 nM FOLR1

binding, binds:
B1
B2
B3
B4
B5
B6
B7
B8
B9
B10
B11
B12
